{"source": "PubChem BioAssay AID1508600", "about": "(Functional Genomics Laboratory (NCATS/FGL), 2020)", "note": "The whole screen tested about 53,000 sequences, of which about 3,700 (7%) were called active.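 Rule for the calls: active = gene knockdowns whose robust z-score for IL-1 alpha signal is at least 2 or at most -2, so actives lie on both sides; inactive = the rest.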 This is one part of the list."}
{"test": "Components of the Cytosolic LPS Sensing Pathway: Gene Identification via Genome-wide siRNA Screen;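 note: robust z of the log signal after scaling to non-targeting control siRNA wells of the plate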", "conditions": "RAW264.7 macrophages, IL-1a HTRF, actives lie on both sides, screened at 100 nM (by protocol), cells primed 5 h with Pam3CSK4 first", "method_in_brief": "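RAW264.7; siRNA 100 nM final, RNAiMAX, 48h 37 degrees C; Pam3CSK4 5 h; LipidA + TransIT-TKO 24 h; IL-1a HTRF; CellTiter-Glo viability; robust z vs negative-control median.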"}
{"sequence": "GGUUAUAGAAUGCUUGAUUTT against Rttn", "z-score": "inactive: 0.511"}
{"sequence": "GGAAAAAGAAGUCCACACATT against 1700016D06Rik", "z-score": "inactive: -1.18"}
{"sequence": "GGUUCAAAACCAAGAGUGUTT against Ahi1", "z-score": "inactive: -0.453"}
{"sequence": "GGAGUGGAGUGAUUUCAGATT against Pdcd6", "z-score": "inactive: -0.535"}
{"sequence": "GGAACCGCUGAUGCUUAAGTT against Ctsl", "z-score": "inactive: -0.726"}
{"sequence": "GGAUGUUCUUGAAGAAUUCTT against Dgkb", "z-score": "inactive: 1.04"}
{"sequence": "GGGUAAAUCUACAAGAAGUTT against Snx25", "z-score": "inactive: 0.182"}
{"sequence": "GGAAGUGUCUUUAAACUUCTT against Slc25a31", "z-score": "inactive: 0.912"}
{"sequence": "GGAUUUGAGCAACUACAGUTT against Eya3", "z-score": "inactive: 0.482"}
{"sequence": "CCUACACAUCCUUAAAGUGTT against Btnl9", "z-score": "inactive: 0.568"}
{"sequence": "GGAGGUUUUGAUGGACUGUTT against Ccdc25", "z-score": "inactive: -0.362"}
{"sequence": "GCAUUCUAUCUUGUCUGGATT against 5730522E02Rik", "z-score": "inactive: -0.16"}
{"sequence": "GAUUUUGUUUAUGGCCCAGTT against Olfr1261", "z-score": "inactive: 0.428"}
{"sequence": "AUCUCUCCUGUUCUAACACTT against Olfr26", "z-score": "inactive: -0.242"}
{"sequence": "GGAGUCAGAAUGUAUAAAUTT against Zfp12", "z-score": "inactive: -1.08"}
{"sequence": "GGGCCUAUGCAAUGAAACCTT against Tshr", "z-score": "inactive: -1.66"}
{"sequence": "GCAUUAAUUGCUUCUCUUATT against Nup155", "z-score": "active: -2.35"}
{"sequence": "GUUCUUAGAGCAGAAGUACTT against Zar1", "z-score": "inactive: -0.671"}
{"sequence": "CCUACCAACUUUACAAGAUTT against Tlr3", "z-score": "inactive: 0.537"}
{"sequence": "CGAGCUUCGGAGGAAGUGATT against Zc3hav1l", "z-score": "inactive: -0.743"}
{"sequence": "GAUGAAGAAGAGCAGGCUCTT against Gm5168", "z-score": "inactive: 1.18"}
{"sequence": "GCUAUUUUUAUAAGGGCCATT against Sh2b2", "z-score": "active: 2.94"}
{"sequence": "GGGAAUUGGGUGUAUACAATT against Hmgcl", "z-score": "inactive: -0.138"}
{"sequence": "GGUUAGAGAUUGUUCUGUUTT against Olfr267", "z-score": "active: 2.02"}
{"sequence": "GGUCUUCAAAAGCAAUAAATT against Mcm3ap", "z-score": "inactive: -1.51"}
{"sequence": "GGUUUCAGAAUGGAGUUACTT against Saa2", "z-score": "inactive: -0.576"}
{"sequence": "CCAGAGCAACUGUUGCUAATT against Itgb2l", "z-score": "inactive: -0.0779"}
{"sequence": "GCGAAAUCAACAGUCAAUUTT against Ep300", "z-score": "inactive: 0.458"}
{"sequence": "CCUGUAAUGGGAAAUGGCCTT against Adgra1", "z-score": "inactive: -0.7"}
{"sequence": "GGGAAAUCAUCUUCUAUAATT against Pde6c", "z-score": "inactive: 0.142"}
{"sequence": "CCUAAUGAUGGCUCUUACUTT against Adgrl4", "z-score": "inactive: -0.0693"}
{"sequence": "CCACUAUAGUCCUUAGUGUTT against Ugt2b5", "z-score": "inactive: -0.875"}
{"sequence": "GGAACAUUCUCGACUUCCCTT against Thop1", "z-score": "inactive: -0.249"}
{"sequence": "CCUGUGGAUUACGGCCUCATT against Ube3b", "z-score": "inactive: -0.282"}
{"sequence": "GGAGAAGUUGAAGUCCUUCTT against Msr1", "z-score": "inactive: -0.229"}
{"sequence": "CCUGGUCUUACACCUGUCATT against Spire1", "z-score": "inactive: -0.0546"}
{"sequence": "GCAAAAGACGAGUGAGCCUTT against Hoxa9", "z-score": "inactive: -1.55"}
{"sequence": "GCUCCGUGUUGUCCUAAUGTT against Fndc7", "z-score": "inactive: 0.474"}
{"sequence": "CCAGUUAUCUAUCUAGUGUTT against Sash1", "z-score": "inactive: 1.2"}
{"sequence": "GGCCGUUCUGUUGACCUUATT against Ovch2", "z-score": "inactive: 1.53"}
{"sequence": "GGAUGAACUCCAGAACAUCTT against Gmfg", "z-score": "inactive: 0.558"}
{"sequence": "GGAUAACUUGCCAAAGUCUTT against Alas1", "z-score": "inactive: 0.856"}
{"sequence": "GGGUAGAUAGAUGUUCAGGTT against BB014433", "z-score": "inactive: 0.398"}
{"sequence": "GCGUGGUUACGCUAUGAUCTT against Tmem121", "z-score": "inactive: 0.213"}
{"sequence": "GGUUUUCUUCUUCAUAGCUTT against Olfr125", "z-score": "inactive: 0.976"}
{"sequence": "GCAAAUAAGAUUGCGUCUGTT against Cpa2", "z-score": "active: 2.89"}
{"sequence": "GGAUGACGAAGCCUAUGAUTT against Nacc2", "z-score": "inactive: -1.16"}
{"sequence": "GGUGAGAACUUAAUCUUGGTT against Tax1bp3", "z-score": "inactive: 0.448"}
{"sequence": "GGCAUUGUCCUACAUGAGCTT against Astl", "z-score": "inactive: 0.154"}
{"sequence": "GGCAUCUGAGUGAUAUAAATT against Dcps", "z-score": "inactive: 0.109"}
{"sequence": "GCAUCACUUACAGAUAGACTT against Olfr305", "z-score": "inactive: -1.21"}
{"sequence": "CCUCUAUUCUCCGUCUAUGTT against Fars2", "z-score": "active: 2.45"}
{"sequence": "GGCAUUCGAAGGGACAGAUTT against Arg2", "z-score": "active: -2.06"}
{"sequence": "CCAAGGUGGGUUACAGUGUTT against Zc3h3", "z-score": "inactive: -0.216"}
{"sequence": "GGAGAUGACGUGAAAACAATT against Srf", "z-score": "inactive: -1.13"}
{"sequence": "GGUAAAUAGUGACCAUGAATT against Pus7", "z-score": "inactive: 1.49"}
{"sequence": "GGUGUCUAUCUUCAACCCATT against Olfr132", "z-score": "inactive: 0.253"}
{"sequence": "GGAUCUGGUCUUAACUUAATT against Chtf8", "z-score": "inactive: -1.46"}
{"sequence": "CCAUUUUAGCCAUCUGGUATT against Slc5a4b", "z-score": "inactive: 0.411"}
{"sequence": "GGAUGUGUCAGGAAAAUAGTT against Ctsm", "z-score": "inactive: -0.176"}
{"sequence": "GGGACCCAAGGAUAUGAAUTT against Rbsn", "z-score": "inactive: 0.6"}
{"sequence": "CGACCACACCCAAAACACUTT against Ints6", "z-score": "inactive: -0.553"}
{"sequence": "GAUCUCAAACAUUCUAUGCTT against Lce1c", "z-score": "inactive: -1.14"}
{"sequence": "GGAGUUUCACCAGAAGGCUTT against Ttc24", "z-score": "inactive: 1.63"}
{"sequence": "GGGUAUGGGAGAAUGAUUATT against Elovl3", "z-score": "inactive: 0.522"}
{"sequence": "CCCAUACUAAAAUUGUUGATT against Adam29", "z-score": "inactive: 0.253"}
{"sequence": "GGAAACCUACUGUUGCACUTT against Wdr59", "z-score": "inactive: -0.627"}
{"sequence": "GCUGAAUGAGAUCUUGAAATT against Hand2", "z-score": "inactive: 0.498"}
{"sequence": "GGUUGGAAAUUGGACAGGATT against Col6a3", "z-score": "active: 2.22"}
{"sequence": "GGCCUUGGGAAAUUACAGGTT against Wnt6", "z-score": "inactive: 0.586"}
{"sequence": "GGGCUCUAACAUCUUAUACTT against Tbc1d31", "z-score": "inactive: 1.54"}
{"sequence": "GGGAUGCAUUACUUACACATT against Map3k20", "z-score": "inactive: 1.11"}
{"sequence": "GAGGGAAAUACAUUCUAACTT against Nms", "z-score": "inactive: -1.22"}
{"sequence": "GCAUCCCGACUACAAGUACTT against Sox21", "z-score": "active: -2.06"}
{"sequence": "GCUCUGACCAUCCUUAGCUTT against Olfr938", "z-score": "active: -2.62"}
{"sequence": "GCUUAAAGCUAACCUAAUGTT against Dyrk3", "z-score": "inactive: 1.36"}
{"sequence": "GACAAAACUCAUUGUUCUUTT against Taf11", "z-score": "inactive: 1.16"}
{"sequence": "CCGAAUUGAAAUCACAAGCTT against Nup43", "z-score": "inactive: -1.31"}
{"sequence": "GGACUCAAGCUAGAACACATT against Col16a1", "z-score": "inactive: 1.19"}
{"sequence": "CCAGACACGCAUUGCGAAATT against H2-M2", "z-score": "inactive: 0.357"}
{"sequence": "GGGAAAAGUGACUAGGCUUTT against Ngb", "z-score": "inactive: -0.331"}
{"sequence": "GCUGUCUGUGGUUAUUGGGTT against Rhbdd3", "z-score": "inactive: -1.52"}
{"sequence": "GGUUACUAAGUGAAGUAAATT against Actr1b", "z-score": "inactive: -1.28"}
{"sequence": "CGGUAUUUCAUCCUGGAUATT against Plekha1", "z-score": "inactive: 0.403"}
{"sequence": "GGAAAAAAAAAAGGACGAGTT against Smap1", "z-score": "inactive: -0.374"}
{"sequence": "CCUAUUAUGUCAACAUUGATT against Il6st", "z-score": "inactive: 1.28"}
{"sequence": "GGUUGGCUGGAAUUUGACATT against Bmp6", "z-score": "inactive: 0.186"}
{"sequence": "GGGAGAAACCUGUGCAAAUTT against Serpinb6c", "z-score": "inactive: 0.459"}
{"sequence": "GCAACAAUAUGAAUAAUGGTT against Robo1", "z-score": "inactive: -0.168"}
{"sequence": "GUACCUCAGAGCUCUGCAUTT against Helt", "z-score": "inactive: -0.292"}
{"sequence": "GGGAAAUGCACUUAAAUGATT against Tox3", "z-score": "inactive: -0.337"}
{"sequence": "CGCGGUCAUCUUUGUCUUCTT against Agap1", "z-score": "inactive: 0.81"}
{"sequence": "CCAUGUCCAAUGAGGACUUTT against Htr1b", "z-score": "inactive: 0.111"}
{"sequence": "GGAUGAUGAGUUUCUCACATT against Pkd1l2", "z-score": "inactive: -0.229"}
{"sequence": "CGAGGAUGACUUGAUGACCTT against Ajm1", "z-score": "active: -2.18"}
{"sequence": "GGAAGCUGGCCAUAGAGAATT against Sall4", "z-score": "inactive: 0.733"}
{"sequence": "GCAUUAACAAAUAUCGUGUTT against Sin3a", "z-score": "inactive: 0.748"}
{"sequence": "UAUUCAACCUCGGUCUCAGTT against Olfr473", "z-score": "inactive: 0.241"}
{"sequence": "GGGUUGAACCUAAAGUCUATT against Akr1cl", "z-score": "inactive: -1.4"}
{"sequence": "CCCGUGCCUUCCUUAAAGCTT against Ggt6", "z-score": "inactive: 0.327"}
{"sequence": "GCCCAUCGAUCCUAAGGAATT against Noct", "z-score": "inactive: 0.538"}
{"sequence": "GCAGGAAAUCUAAUGCACUTT against Gsdma3", "z-score": "inactive: -0.359"}
{"sequence": "GGGCAAGUUCCAUCUCCUUTT against Cdc42ep2", "z-score": "active: -2.2"}
{"sequence": "GGAGAAUGCACAGGUCAUGTT against Ubxn4", "z-score": "inactive: -0.038"}
{"sequence": "GGCAGAAAGCAGAAACAGUTT against Mok", "z-score": "inactive: -0.901"}
{"sequence": "GCGACUAAUCCUUUGCUACTT against Cdc42bpb", "z-score": "inactive: 0.938"}
{"sequence": "GGACGGUUCCUUCAUAGUATT against Poglut2", "z-score": "inactive: -0.0538"}
{"sequence": "GGUUCUUCAAACUAGACCGTT against Mov10", "z-score": "inactive: 0.128"}
